According to paper PMC6821912:
These are yes or no findings as the source states them, for the method shown. In cells and extracts the contact can be indirect. Some results given as binding are weak or reduced against the parent protein; the word gives no strength. For some of these results: Sequences can lack the tags named with a protein. One block for each molecule: values may come before it.

Chains of the proteins cited; added tags and fusions are not shown.
UniProt O15105: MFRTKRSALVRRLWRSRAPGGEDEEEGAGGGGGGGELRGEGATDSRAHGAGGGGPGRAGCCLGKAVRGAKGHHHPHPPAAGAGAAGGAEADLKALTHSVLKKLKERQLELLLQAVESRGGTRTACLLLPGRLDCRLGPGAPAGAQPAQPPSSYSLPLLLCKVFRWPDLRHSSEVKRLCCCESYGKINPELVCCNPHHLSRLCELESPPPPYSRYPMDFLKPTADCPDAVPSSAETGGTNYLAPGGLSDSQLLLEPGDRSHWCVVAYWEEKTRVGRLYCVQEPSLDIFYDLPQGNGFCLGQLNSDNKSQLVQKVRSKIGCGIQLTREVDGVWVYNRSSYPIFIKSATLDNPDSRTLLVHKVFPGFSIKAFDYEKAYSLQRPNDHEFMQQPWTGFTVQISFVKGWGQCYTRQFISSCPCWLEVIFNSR
UniProt Q9HCE7: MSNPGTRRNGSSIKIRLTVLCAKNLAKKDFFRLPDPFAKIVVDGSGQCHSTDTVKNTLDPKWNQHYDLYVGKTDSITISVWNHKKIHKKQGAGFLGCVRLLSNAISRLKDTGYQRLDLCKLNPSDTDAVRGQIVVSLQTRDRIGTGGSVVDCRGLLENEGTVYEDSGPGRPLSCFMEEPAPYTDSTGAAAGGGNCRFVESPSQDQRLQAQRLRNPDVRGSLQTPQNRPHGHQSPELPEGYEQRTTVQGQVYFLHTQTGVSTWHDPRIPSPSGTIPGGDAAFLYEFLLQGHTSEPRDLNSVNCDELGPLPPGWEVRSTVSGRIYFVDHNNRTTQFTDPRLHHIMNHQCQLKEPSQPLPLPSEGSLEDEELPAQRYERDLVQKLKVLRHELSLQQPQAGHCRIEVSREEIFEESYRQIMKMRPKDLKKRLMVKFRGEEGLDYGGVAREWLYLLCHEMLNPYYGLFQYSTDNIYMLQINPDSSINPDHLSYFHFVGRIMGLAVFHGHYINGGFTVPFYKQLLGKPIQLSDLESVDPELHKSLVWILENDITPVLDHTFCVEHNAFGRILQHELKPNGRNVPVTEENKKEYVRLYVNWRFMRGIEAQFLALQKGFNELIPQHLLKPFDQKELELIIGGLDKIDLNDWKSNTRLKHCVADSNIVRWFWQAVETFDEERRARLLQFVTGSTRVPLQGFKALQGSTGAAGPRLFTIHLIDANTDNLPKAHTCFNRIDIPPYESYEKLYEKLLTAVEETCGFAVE

How the values were obtained:
[1] = molecular target: T1, Strep-tagged Gadd45β (human) (UniProt O75293); test: pull-down; Strep pull-down (Strep-Tactin Sepharose, overnight, 4 °C) from RIPA lysates of HEK293T cells co-transfected with HA-Smad7 and Strep-Gadd45β; immunoblot with anti-HA and anti-Strep
T1 sequence: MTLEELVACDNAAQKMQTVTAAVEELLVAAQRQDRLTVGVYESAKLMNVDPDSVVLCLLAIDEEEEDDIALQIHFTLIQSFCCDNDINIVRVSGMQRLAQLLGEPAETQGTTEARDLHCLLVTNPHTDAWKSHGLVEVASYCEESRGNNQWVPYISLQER

[2] = molecular target: GST-tagged Smad7 (WT, in HEK293T cells) (human) (UniProt O15105); test: pull-down; GST pull-down from RIPA lysates of HEK293T cells co-transfected with GST-Smad7, Myc-Smurf1 and rising doses of V5-Gadd45β; immunoblot with anti-Myc or anti-V5
[3] = molecular target: GST-tagged Smad7 (in Caco-2 cells) (human) (UniProt O15105); test: pull-down; GST pull-down (Glutathione 4B, overnight, 4 °C) from RIPA lysates of Caco-2 cells overexpressing GST-Smad7, treated with or without TGF-β1 (10 ng/mL) for 10 min; immunoblot with anti-Gadd45β

binding [1]: binds
Molecule: HA-tagged Smad7 (from UniProt O15105 1-426)

binding [2]: binds
Molecule: Myc-tagged Smurf1 (from UniProt Q9HCE7 1-757) (enzyme)

binding [3]: binds
B1: Growth arrest and DNA damage-inducible 45 beta (Gadd45β), endogenous in Caco-2 cells (protein, UniProt O75293 1-160)
chain: T1 sequence

binding [2]: binds
B2: V5-tagged Gadd45β (protein, UniProt O75293 1-160)
chain: T1 sequence
